Measurements reported in PubChem BioAssay AID220 (DTP/NCI, 2004).
The list is a part of this screen's results and no random one: it is rich in T/C values a quarter to a half above the control, in often repeated tests (any T/C) and in doses without a T/C. Further doses and runs are listed elsewhere. T/C: endpoint of the treated group in % of that of the vehicle group. Schedules are NCI's codes, taken here to give the interval after Q, in days (D) or hours (H), and the number of doses after X. Some T/C values are followed by the survivors on the day toxicity was checked, most often the fifth; without a count, all were alive then. Some doses were run more than once; the results are listed from low to high. Some entries give survivors of the animals treated and no T/C: the source holds a T/C of zero for them, seemingly a mark for toxic or unscored doses. Counts of survivors are from the toxicity check (mostly the fifth day) where no day follows; animals may have died later.

Test system: CD8F1 mice, subcutaneous mammary adenocarcinoma, T/C%
Test: NCI In Vivo Anticancer Drug Screen. Data for tumor model Mammary Adenocarcinoma CD8F1 (subcutaneous) in CD8F1
Conditions: higher T/C = larger tumour
In short: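 Transplantable tumors were established in mice, animals were dosed with compound or vehicle, and survival or tumor size was then measured in both groups. The treated result was divided by the control result.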

[1] = T/C endpoint: median tumor weight change, dose: 125.0 mg/kg/injection, schedule: Q01DX001 (ip), vehicle: water
[2] = T/C endpoint: median tumor weight change, dose: 1000.0 mg/kg/injection, schedule: Q01DX001 (ip), vehicle: saline with Tween-80
[3] = T/C endpoint: median tumor weight change, dose: 2000.0 mg/kg/injection, schedule: Q01DX001 (ip), vehicle: saline with Tween-80
[4] = T/C endpoint: median tumor weight (est.), dose: 200.0 mg/kg/injection, schedule: Q07DX005 (ip), vehicle: Klucel (hydroxypropylcellulose) (HPC), evaluated on day 30
[5] = T/C endpoint: median tumor weight change, dose: 2000.0 mg/kg/injection, schedule: Q01DX001 (ip), vehicle: Klucel (hydroxypropylcellulose) (HPC)
[6] = T/C endpoint: median tumor weight change, dose: 125.0 mg/kg/injection, schedule: Q01DX001 (ip), vehicle: saline

Nc1n[n+](-c2ccccc2)no1
survivor count (T/C endpoint: median tumor weight (est.), dose: 100.0 mg/kg/injection, schedule: Q07DX005 (ip), vehicle: water): 0 of 10 on day 30
survivor count [1]: 0 of 10 on day 31
survivor count (T/C endpoint: median tumor weight change, dose: 250.0 mg/kg/injection, schedule: Q01DX001 (ip), vehicle: water): 0 of 10 on day 31

OCC1OC(n2cnc3c(Cl)ncnc32)C(O)C1O (stereo not drawn)
T/C (T/C endpoint: median tumor weight (est.), dose: 50.0 mg/kg/injection, schedule: Q07DX005 (ip), vehicle: saline, evaluated on day 30): 130 % of control

Nc1n[nH]c(N)n1
T/C (T/C endpoint: mean tumor weight, dose: 50.0 mg/kg/injection, schedule: Q01DX009 (ip), vehicle: saline, evaluated on day 25): 126 % of control

CC1(C)CC2(C)OC2C2(C1)N=NC(=Nc1ccccc1)O2 (stereo not drawn)
survivor count [2]: 5 of 10 on day 38
survivor count [3]: 3 of 10 on day 38

C[C@]12CC[C@@H]3c4ccc(O)cc4CC[C@H]3[C@@H]1CC[C@@H]2O
T/C (T/C endpoint: median tumor weight (est.), dose: 50.0 mg/kg/injection, schedule: Q07DX005 (ip), vehicle: Klucel (hydroxypropylcellulose) (HPC), evaluated on day 30): 6 [9 of 10 alive on day 30], 46, 65 [9 of 10 alive], 111 % of control
T/C (T/C endpoint: median tumor weight (est.), dose: 100.0 mg/kg/injection, schedule: Q07DX005 (ip), vehicle: Klucel (hydroxypropylcellulose) (HPC), evaluated on day 30): 14 [9 of 10 alive on day 30], 41, 45 [7 of 10 alive], 136 % of control
T/C [4]: 7 [9 of 10 alive on day 30], 36, 42 [7 of 10 alive], 136 % of control [9 of 10 alive on day 30]

CN1c2c(nc(N)[nH]c2=O)NCC1CCNc1ccc(C(=O)NC(CCC(=O)O)C(=O)O)cc1 (stereo not drawn)
T/C (T/C endpoint: median tumor weight (est.), dose: 800.0 mg/kg/injection, schedule: Q07DX005 (ip), vehicle: saline, evaluated on day 30): 142 % of control

O=C(NP(=O)(N1CC1)N1CC1)c1cc(I)ccc1I
survivor count (T/C endpoint: median tumor weight (est.), dose: 256.0 mg/kg/injection, schedule: Q07DX005 (ip), vehicle: saline with Tween-80): 4 of 10

NC(CCC(=O)NC(CS)C(=O)NCC(=O)O)C(=O)O (stereo not drawn)
T/C (T/C endpoint: median tumor weight change, dose: 500.0 mg/kg/injection, schedule: Q01DX001 (ip), vehicle: saline, evaluated on day 26): 130 % of control

CCOc1cc2c(cc1C(C)c1ccc(OC)cc1)OCO2 (stereo not drawn)
survivor count (T/C endpoint: median tumor weight change, dose: 1000.0 mg/kg/injection, schedule: Q01DX001 (ip), vehicle: distilled water + alcohol): 5 of 10 on day 28

CCN(CC)CCCNc1nccc2c(C)c3[nH]c4ccncc4c3cc12
survivor count (T/C endpoint: median tumor weight change, dose: 25.0 mg/kg/injection, schedule: Q01DX001 (ip), vehicle: other): 5 of 10 on day 32
survivor count (T/C endpoint: median tumor weight change, dose: 50.0 mg/kg/injection, schedule: Q01DX001 (ip), vehicle: other): 0 of 10 on day 27, 0 of 10 on day 29, 0 of 10 on day 32
survivor count (T/C endpoint: median tumor weight change, dose: 100.0 mg/kg/injection, schedule: Q01DX001 (ip), vehicle: other): 0 of 10 on day 27, 0 of 10 on day 29, 0 of 10 on day 32
survivor count (T/C endpoint: median tumor weight change, dose: 200.0 mg/kg/injection, schedule: Q01DX001 (ip), vehicle: other): 0 of 10 on day 29 and 0 of 10 on day 32
survivor count (T/C endpoint: median tumor weight change, dose: 400.0 mg/kg/injection, schedule: Q01DX001 (ip), vehicle: other): 0 of 10 on day 29 and 0 of 10 on day 32

CC/C(=C(\c1ccccc1)c1ccc(OCCN(C)C)cc1)c1ccccc1
survivor count (T/C endpoint: median tumor weight change, dose: 400.0 mg/kg/injection, schedule: Q01DX001 (ip), vehicle: suspension in saline): 5 of 10 on day 35

S=C(Nc1ccc(Cl)c(Cl)c1)N1c2ccccc2-n2cccc2C1c1cccnc1 (stereo not drawn)
survivor count [5]: 4 of 10 on day 29

CC1=C(O)C(=O)[C@@H]2O[C@@H]2C1=O
survivor count (T/C endpoint: median tumor weight change, dose: 62.5 mg/kg/injection, schedule: Q01DX001 (ip), vehicle: saline): 0 of 10 on day 36
survivor count [6]: 0 of 10 on day 36

COc1cccc2c1C(=O)c1c(O)c3c(c(O)c1C2=O)CC(O)(/C(C)=N/NC(=O)CCCCC(=O)N/N=C(\C)C1(O)Cc2c(O)c4c(c(O)c2C(OC2CC(N)C(O)C(C)O2)C1)C(=O)c1c(OC)cccc1C4=O)CC3OC1CC(N)C(O)C(C)O1 (stereo not drawn)
survivor count (T/C endpoint: median tumor weight change, dose: 62.0 mg/kg/injection, schedule: Q01DX001 (ip), vehicle: water): 1 of 10 on day 26
survivor count [1]: 0 of 10 on day 26

Nc1n[n+](-c2ccc(Cl)cc2)no1
survivor count (T/C endpoint: median tumor weight (est.), dose: 50.0 mg/kg/injection, schedule: Q07DX005 (ip), vehicle: water): 3 of 10

COc1cccc2c1C(=O)c1c(O)c3c(c(O)c1C2=O)CC(O)(/C(C)=N/NC(=O)CCC(=O)N/N=C(\C)C1(O)Cc2c(O)c4c(c(O)c2C(OC2CC(N)C(O)C(C)O2)C1)C(=O)c1c(OC)cccc1C4=O)CC3OC1CC(N)C(O)C(C)O1 (stereo not drawn)
T/C (T/C endpoint: median tumor weight (est.), dose: 0.75 mg/kg/injection, schedule: Q07DX005 (ip), vehicle: water, evaluated on day 30): 130 % of control
T/C (T/C endpoint: median tumor weight (est.), dose: 6.0 mg/kg/injection, schedule: Q07DX005 (ip), vehicle: water, evaluated on day 30): 136 % of control
survivor count (T/C endpoint: median tumor weight (est.), dose: 48.0 mg/kg/injection, schedule: Q07DX005 (ip), vehicle: water): 1 of 10 on day 30

Clc1ccc(C(c2ccccc2Cl)C(Cl)Cl)cc1 (stereo not drawn)
T/C [4]: 147 % of control
T/C (T/C endpoint: median tumor weight (est.), dose: 400.0 mg/kg/injection, schedule: Q07DX005 (ip), vehicle: Klucel (hydroxypropylcellulose) (HPC), evaluated on day 30): 132 % of control

COc1ccc2[nH]c3c(c2c1)CCNC3CC(C)CCC=C(C)C (stereo not drawn)
T/C (T/C endpoint: median tumor weight change, dose: 62.5 mg/kg/injection, schedule: Q01DX001 (ip), vehicle: Klucel (hydroxypropylcellulose) (HPC), evaluated on day 29): 147 % of control [9 of 10 alive on day 29]
survivor count (T/C endpoint: median tumor weight change, dose: 62.5 mg/kg/injection, schedule: Q01DX001 (ip), vehicle: Klucel (hydroxypropylcellulose) (HPC)): 0 of 10 on day 25
survivor count (T/C endpoint: median tumor weight change, dose: 125.0 mg/kg/injection, schedule: Q01DX001 (ip), vehicle: Klucel (hydroxypropylcellulose) (HPC)): 5 of 10 on day 25
survivor count (T/C endpoint: median tumor weight change, dose: 200.0 mg/kg/injection, schedule: Q01DX001 (ip), vehicle: Klucel (hydroxypropylcellulose) (HPC)): 4 of 10 on day 33
survivor count (T/C endpoint: median tumor weight change, dose: 250.0 mg/kg/injection, schedule: Q01DX001 (ip), vehicle: Klucel (hydroxypropylcellulose) (HPC)): 5 of 10 on day 25 and 5 of 10 on day 29
survivor count (T/C endpoint: median tumor weight change, dose: 400.0 mg/kg/injection, schedule: Q01DX001 (ip), vehicle: Klucel (hydroxypropylcellulose) (HPC)): 0 of 10 on day 33
survivor count (T/C endpoint: median tumor weight change, dose: 500.0 mg/kg/injection, schedule: Q01DX001 (ip), vehicle: Klucel (hydroxypropylcellulose) (HPC)): 0 of 10 on day 29 and 1 of 10 on day 25
survivor count (T/C endpoint: median tumor weight change, dose: 1000.0 mg/kg/injection, schedule: Q01DX001 (ip), vehicle: Klucel (hydroxypropylcellulose) (HPC)): 1 of 10 on day 25
survivor count [5]: 0 of 10 on day 25

O=C(O)C(O)C(O)C1[O][Sb][O]C1C(=O)O (stereo not drawn)
survivor count [6]: 4 of 10 on day 27
survivor count (T/C endpoint: median tumor weight change, dose: 250.0 mg/kg/injection, schedule: Q01DX001 (ip), vehicle: saline): 0 of 10 on day 27
survivor count (T/C endpoint: median tumor weight change, dose: 500.0 mg/kg/injection, schedule: Q01DX001 (ip), vehicle: saline): 0 of 10 on day 27

Cc1oc2c(C)c3oc(=O)cc(C)c3cc2c1CCl
T/C (T/C endpoint: median tumor weight change, dose: 125.0 mg/kg/injection, schedule: Q01DX001 (ip), vehicle: saline with Tween-80, evaluated on day 25): 11 % of control
T/C (T/C endpoint: median tumor weight change, dose: 125.0 mg/kg/injection, schedule: Q01DX001 (ip), vehicle: saline with Tween-80, evaluated on day 29): 117 % of control
T/C (T/C endpoint: median tumor weight change, dose: 125.0 mg/kg/injection, schedule: Q01DX001 (ip), vehicle: saline with Tween-80, evaluated on day 32): 64 % of control
T/C (T/C endpoint: median tumor weight change, dose: 125.0 mg/kg/injection, schedule: Q01DX001 (ip), vehicle: saline with Tween-80, evaluated on day 40): 49 % of control
T/C (T/C endpoint: median tumor weight change, dose: 250.0 mg/kg/injection, schedule: Q01DX001 (ip), vehicle: saline with Tween-80, evaluated on day 25): 21 % of control [9 of 10 alive on day 25]
T/C (T/C endpoint: median tumor weight change, dose: 250.0 mg/kg/injection, schedule: Q01DX001 (ip), vehicle: saline with Tween-80, evaluated on day 29): 137 % of control
T/C (T/C endpoint: median tumor weight change, dose: 250.0 mg/kg/injection, schedule: Q01DX001 (ip), vehicle: saline with Tween-80, evaluated on day 32): 60 % of control
survivor count (T/C endpoint: median tumor weight change, dose: 250.0 mg/kg/injection, schedule: Q01DX001 (ip), vehicle: saline with Tween-80): 3 of 10 on day 40
survivor count [2]: 0 of 10 on day 32 and 2 of 10 on day 25
survivor count [3]: 0 of 10 on day 25, 0 of 10 on day 29, 0 of 10 on day 32
